Experimental data reported in patent publication US11179436B2, “Methods and compositions comprising a C-terminal Bax peptide” (University of Central Florida Research Foundation, Inc., priority 2011, dated 2021).

B1: Bax-KMGK: full-length Bax, rearrangement of C-terminal residues to KMGK (protein, UniProt Q07812 1-192, looked up, variant K190M M191G G192K)
Apoptosis regulator BAX: MDGSGEQPRGGGPTSSEQIMKTGALLLQGFIQDRAGRMGGEAPELALDPVPQDASTKKLSECLKRIGDELDSNMELQRMIAAVDTDSPREVFFRVAADMFSDGNFNWGRVVALFYFASKLVLKALCTKVPELIRTIMGWTLDFLRERLLGWIQDQGGWDGLLSYFGTPTWQTVTIFVAGVLTASLTIWKMGK

Test system: Flp-In T-REx 293 cells
Assay: Intracellular localization of HA-tagged full-length Bax and K189/K190 mutants, immunoblot of cytosolic and mitochondrial lysates
Type: cell-based
Settings: for Localization of full-length Bax among cytosolic and mitochondrial lysates: HA-tagged Bax, Flp-In T-Rex 293 cells, immunoblot; for Cellular Localization: full-length Bax, residues 189-192 mutated, Flp-In T-REx 293 cells

| Molecule | Localization of full-length Bax among cytosolic and mitochondrial lysates | Cellular Localization |
| --- | --- | --- |
| Bax-RR: full-length Bax, K189/K190 substituted with arginine | mitochondrial localization | Mito |
| Bax-EK: full-length Bax, mutation of K189 | cytosolic | Cytosol |
| Bax-EE: full-length Bax, K189/K190 substituted with glutamic acid | cytosolic retention | Cytosol |
| KEMK: full-length Bax, residues 189-192 printed KEMK, SEQ ID NO 59 | – | Cytosol |
| Bax-LL: full-length Bax, K189/K190 substituted with leucine | mitochondrial association | Mito |
| LKMG: full-length Bax, residues 189-192 LKMG, SEQ ID NO 55 | – | Mito |
| Bax-KK: full-length, wild-type HA-tagged Bax | distributed among cytosolic and mitochondrial lysates | Cyto > Mito |
| Bax-DD: full-length Bax, K189/K190 substituted with aspartic acid | cytosolic retention | Cytosol |
| Bax-QQ: full-length Bax, K189/K190 substituted with glutamine | – | Cyto = Mito |
| KLMG: full-length Bax, residues 189-192 KLMG, SEQ ID NO 56 | – | Mito |
| B1 | – | Cyto = Mito |
